Laboratory results published in PubChem BioAssay AID493014 (National Center for Advancing Translational Sciences (NCATS), 2011).
Some of the results follow. The main result of the screen is listed elsewhere. These columns were measured beside it and carry no call. Compounds called inactive in the main read-out are mostly missing here. The note in brackets gives the kind of curve behind each potency; many fits are weak.

experiment: qHTS Assay to Find Inhibitors of Chronic Active B-Cell Receptor Signaling; conditions: ABC-DLBCL IkBa-CBG/CBR reporter, luminescence ratio (green luciferase fused to IkBa over red control in TMD8 lymphoma cells), 4 h; measured here: CBR red luminescence, cell number
Outline: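 Doxycycline induced both beetle luciferases in TMD8 lymphoma cells; IKK-driven degradation limits the IkappaBalpha-fused green signal, while red luminescence normalises for cell number and nonspecific effects. Compounds tested up to 46 uM, 4 hrs.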

Q: Which AC50 does the source give for Cc1cc(C)cc(-n2c(/C=C/c3cccc(F)c3)nc3ccccc3c2=O)c1 here?
A: 3.55 µM [rising, partial curve, poor fit]

Q: Which AC50 does the source give for COc1cc(/C=N/NC(=O)Cn2c([N+](=O)[O-])cnc2C)ccc1OC(=O)N(C)C here?
A: 6.51 µM [rising, single point]

Q: With CCCCNS(=O)(=O)c1ccc(OCC(=O)N2CCN(Cc3ccc4c(c3)OCO4)CC2)cc1 as the compound, how does the AC50 read?
A: 28.2 µM [falling, single point]

Q: With O=[N+]([O-])c1cccc(NP(=O)(Oc2ccccc2)Oc2ccccc2)c1 as the compound, how does the AC50 read?
A: 31.6 µM [falling, single point]

Q: For CC1(C)CC(=O)C(C=NCCN2CCN(C(=O)Cc3ccccc3)CC2)=C(O)C1, which AC50 is on record?
A: 10 µM [rising, partial curve, poor fit]

Q: With COc1cccc(CC(=O)N2CCN(Cc3cccc(Cl)c3)CC2)c1 as the compound, how does the AC50 read?
A: 17.8 µM [falling, partial curve, poor fit]

Q: Which AC50 does the source give for CC(CO)(CO)N=Cc1c(O)n(-c2cccc3ccccc23)c(=O)[nH]c1=O here?
A: 6.51 µM [falling, partial curve, poor fit]

Q: For COc1ccc2ccc(O)c(CN3CC=C(c4ccccc4)CC3)c2c1, which AC50 is on record?
A: 35.5 µM [falling, single point]

Q: With C=CCn1c(O)c(C(C)=NCc2cccnc2)c(=O)[nH]c1=O as the compound, how does the AC50 read?
A: 2.59 µM [falling, partial curve]

Q: Which AC50 does the source give for CNC(=O)Oc1ccc2c(c1)C(=O)c1ccccc1CO2 here?
A: 2.91 µM [falling, single point]

Q: For c1ccc2c(CN3CCCCCC3)c[nH]c2c1, which AC50 is on record?
A: 2 µM [falling, full curve, poor fit]

Q: For Cc1cccc(OP(=O)(Nc2ccc(F)cc2)Oc2cccc(C)c2)c1, which AC50 is on record?
A: 14.1 µM [falling, single point]

Q: For CC1=CC(C)C(COC(N)=O)(COC(N)=O)C(C)C1 (stereo not drawn), which AC50 is on record?
A: 0.00411 µM [falling, full curve, poor fit]

Q: Which AC50 does the source give for NC(N)=N/N=C/c1ccc(N2CCOCC2)cc1 here?
A: 35.5 µM [falling, single point]

Q: Which AC50 does the source give for CNC(=O)N(C)c1ccc(C(O)(C(=O)OC)C(F)(F)F)cc1 (stereo not drawn) here?
A: 35.5 µM [rising, single point]

Q: With Cn1c(=O)oc2cc(S(=O)(=O)NC3CCCc4ccccc43)ccc21 (stereo not drawn) as the compound, how does the AC50 read?
A: 0.184 µM [falling, single point]

Q: With O=C(O)c1ccccc1SCC(=O)N1CCc2ccccc21 as the compound, how does the AC50 read?
A: 14.1 µM [falling, partial curve, poor fit]

Q: Which AC50 does the source give for O=C(Cn1nc(Cc2cccnc2)c2ccccc2c1=O)N1CCC2(CC1)OCCO2 here?
A: 29.1 µM [rising, single point]
